# In the supplement of paper PMC8728848:
# Some of the results follow.
# B1: Thrombomodulin Lectin (Mus musculus) (protein)
# chain: LSALAKLQPTGSQCVEHECFALFQGPATFLDASQACQRLQGHLMTVRSSVAADVISLLLSQSSMDLGPWIGLQLPQGCDDPVHLGPLRGFQWVTGDNHTSYSRWARPNDQTAPLCGPLCVTVSTATEAAPGEPAWEEKPCETETQGFLCEFYFTASCRVDPIPVREDTKEEEGAGEPPVSPTPGSPTGPPSARPVLDEPRVPITQNPCPPLKECPPCAAPDLEGGPSVFIFPPKIKDVLMISLSPMVTCVVVDVSEDDPDVQISWFVNNVEVHTAQTQTHREDYNSTLRVVSALPIQHQDWMSGKAFACAVNNRALPSPIEKTISKPRGPVRAPQVYVLPPPAEEMTKKEFSLTCMITGFLPAEIAVDWTSNGRTEQNYKNTATVLDSDGSYFMYSKLRVQKSTWERGSLFACSVVHEGLHNHLTTKTISRSLGK
# Legend:
# Experiment in all cases: glycan array binding signal (z-score within array); higher = stronger binding
# Conditions in all cases: glycan notation: IUPAC condensed, linker removed
# [1] = target: Fuc(a1-2)Gal(b1-4)GlcNAc(b1-3)Gal(b1-4)GlcNAc(b1-3)Gal(b1-4)GlcNAc
# Procedure, shortened: (§1)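 Glycan array binding is given as a within-array Z-score, which can be read as non-binding when negative. The arrays, 3228 of them, came from the Consortium for Functional Glycomics database and were retained only where the protein sequence was available. Z-scores were averaged across arrays of the same protein sequence at different concentrations or buffers and across linkers.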
# [2] = target: Fuc(a1-2)Gal(b1-4)GlcNAc(b1-3)GalNAc
# Procedure, shortened: as §1
# [3] = target: Fuc(a1-2)Gal(b1-4)GlcNAc(b1-3)[Fuc(a1-2)Gal(b1-4)GlcNAc(b1-6)]GalNAc
# Procedure, shortened: as §1
# [4] = target: Fuc(a1-2)Gal(b1-4)GlcNAc(b1-3)[Fuc(a1-3)[Gal(b1-4)]GlcNAc(b1-6)]Gal(b1-4)Glc
# Procedure, shortened: as §1
# [5] = target: Fuc(a1-2)Gal(b1-4)GlcNAc(b1-6)GalNAc
# Procedure, shortened: as §1
# [6] = target: Fuc(a1-2)Gal(b1-4)GlcNAc6S
# Procedure, shortened: as §1
# [7] = target: Fuc(a1-2)Gal(b1-4)[Fuc(a1-3)]GlcNAc
# Procedure, shortened: as §1
# [8] = target: Fuc(a1-2)Gal(b1-4)[Fuc(a1-3)]GlcNAc(b1-2)Man(a1-3)[Fuc(a1-2)Gal(b1-4)[Fuc(a1-3)]GlcNAc(b1-2)Man(a1-6)]Man(b1-4)GlcNAc(b1-4)[Fuc(a1-6)]GlcNAc
# Procedure, shortened: as §1
# [9] = target: Fuc(a1-2)Gal(b1-4)[Fuc(a1-3)]GlcNAc(b1-2)[Fuc(a1-2)Gal(b1-4)[Fuc(a1-3)]GlcNAc(b1-4)]Man(a1-3)[Fuc(a1-2)Gal(b1-4)[Fuc(a1-3)]GlcNAc(b1-2)Man(a1-6)]Man(b1-4)GlcNAc(b1-4)GlcNAc
# Procedure, shortened: as §1
# [10] = target: Fuc(a1-2)Gal(b1-4)[Fuc(a1-3)]GlcNAc(b1-3)Gal(b1-4)[Fuc(a1-3)]GlcNAc
# Procedure, shortened: as §1
# [11] = target: Fuc(a1-2)Gal(b1-4)[Fuc(a1-3)]GlcNAc(b1-3)Gal(b1-4)[Fuc(a1-3)]GlcNAc(b1-3)Gal(b1-4)[Fuc(a1-3)]GlcNAc
# Procedure, shortened: as §1
# [12] = target: Fuc(a1-2)Gal(b1-4)[Fuc(a1-3)]GlcNAc(b1-3)GalNAc
# Procedure, shortened: as §1
# [13] = target: Fuc(a1-2)Gal(b1-4)[Fuc(a1-3)]GlcNAc(b1-3)[Neu5Ac(a2-6)Gal(b1-4)GlcNAc(b1-6)]Gal(b1-4)Glc
# Procedure, shortened: as §1
# [14] = target: Fuc(a1-2)Gal3S(b1-4)GlcNAc
# Procedure, shortened: as §1
# [15] = target: Fuc(a1-2)Gal6S(b1-3)GlcNAc
# Procedure, shortened: as §1
# [16] = target: Fuc(a1-2)Gal6S(b1-3)GlcNAc6S
# Procedure, shortened: as §1
# Fuc(a1-2)Gal6S(b1-4)Glc = target: Fuc(a1-2)Gal6S(b1-4)Glc
# Procedure, shortened: as §1
# [17] = target: Fuc(a1-2)Gal6S(b1-4)Glc6S
# Procedure, shortened: as §1
# Fuc(a1-2)[Gal(a1-3)]Gal = target: Fuc(a1-2)[Gal(a1-3)]Gal
# Procedure, shortened: as §1
# [18] = target: Fuc(a1-2)[Gal(a1-3)]Gal(b1-3)GalNAc
# Procedure, shortened: as §1
# [19] = target: Fuc(a1-2)[Gal(a1-3)]Gal(b1-3)GalNAc(b1-3)Gal(a1-4)Gal(b1-4)Glc
# Procedure, shortened: as §1
# [20] = target: Fuc(a1-2)[Gal(a1-3)]Gal(b1-3)GlcNAc
# Procedure, shortened: as §1
# [21] = target: Fuc(a1-2)[Gal(a1-3)]Gal(b1-3)GlcNAc(b1-2)Man(a1-3)[Fuc(a1-2)[Gal(a1-3)]Gal(b1-3)GlcNAc(b1-2)Man(a1-6)]Man(b1-4)GlcNAc(b1-4)GlcNAc
# Procedure, shortened: as §1
# [22] = target: Fuc(a1-2)[Gal(a1-3)]Gal(b1-3)GlcNAc(b1-2)Man(a1-3)[Fuc(a1-2)[Gal(a1-3)]Gal(b1-3)GlcNAc(b1-2)Man(a1-6)]Man(b1-4)GlcNAc(b1-4)[Fuc(a1-6)]GlcNAc
# Procedure, shortened: as §1
# [23] = target: Fuc(a1-2)[Gal(a1-3)]Gal(b1-3)GlcNAc(b1-3)GalNAc
# Procedure, shortened: as §1
# [24] = target: Fuc(a1-2)[Gal(a1-3)]Gal(b1-3)GlcNAc(b1-6)GalNAc
# Procedure, shortened: as §1
# [25] = target: Fuc(a1-2)[Gal(a1-3)]Gal(b1-4)Glc
# Procedure, shortened: as §1
# [26] = target: Fuc(a1-2)[Gal(a1-3)]Gal(b1-4)GlcNAc
# Procedure, shortened: as §1
# [27] = target: Fuc(a1-2)[Gal(a1-3)]Gal(b1-4)GlcNAc(b1-2)Man
# Procedure, shortened: as §1
# [28] = target: Fuc(a1-2)[Gal(a1-3)]Gal(b1-4)GlcNAc(b1-2)Man(a1-3)[Fuc(a1-2)[Gal(a1-3)]Gal(b1-4)GlcNAc(b1-2)Man(a1-6)]Man(b1-4)GlcNAc(b1-4)GlcNAc
# Procedure, shortened: as §1
# [29] = target: Fuc(a1-2)[Gal(a1-3)]Gal(b1-4)GlcNAc(b1-2)Man(a1-3)[Fuc(a1-2)[Gal(a1-3)]Gal(b1-4)GlcNAc(b1-2)Man(a1-6)]Man(b1-4)GlcNAc(b1-4)[Fuc(a1-6)]GlcNAc
# Procedure, shortened: as §1
# [30] = target: Fuc(a1-2)[Gal(a1-3)]Gal(b1-4)GlcNAc(b1-3)GalNAc
# Procedure, shortened: as §1
# [31] = target: Fuc(a1-2)[Gal(a1-3)]Gal(b1-4)GlcNAc(b1-3)[Fuc(a1-2)[Gal(a1-3)]Gal(b1-4)GlcNAc(b1-6)]GalNAc
# Procedure, shortened: as §1
# [32] = target: Fuc(a1-2)[Gal(a1-3)]Gal(b1-4)GlcNAc(b1-6)GalNAc
# Procedure, shortened: as §1
# [33] = target: Fuc(a1-2)[Gal(a1-3)]Gal(b1-4)[Fuc(a1-3)]Glc
# Procedure, shortened: as §1
# [34] = target: Fuc(a1-2)[Gal(a1-3)]Gal(b1-4)[Fuc(a1-3)]GlcNAc
# Procedure, shortened: as §1
# [35] = target: Fuc(a1-2)[Gal(a1-3)]Gal(b1-4)[Fuc(a1-3)]GlcNAc(b1-3)GalNAc
# Procedure, shortened: as §1
# [36] = target: Fuc(a1-2)[Gal(a1-4)]Gal(b1-4)GlcNAc
# Procedure, shortened: as §1
# [37] = target: Fuc(a1-2)[GalNAc(a1-3)]Gal
# Procedure, shortened: as §1
# [38] = target: Fuc(a1-2)[GalNAc(a1-3)]Gal(b1-3)GalNAc(a1-3)[Fuc(a1-2)]Gal(b1-4)GlcNAc
# Procedure, shortened: as §1
# [39] = target: Fuc(a1-2)[GalNAc(a1-3)]Gal(b1-3)GalNAc(b1-3)Gal(a1-4)Gal(b1-4)Glc
# Procedure, shortened: as §1
# [40] = target: Fuc(a1-2)[GalNAc(a1-3)]Gal(b1-3)GlcNAc
# Procedure, shortened: as §1
# [41] = target: Fuc(a1-2)[GalNAc(a1-3)]Gal(b1-3)GlcNAc(b1-2)Man(a1-3)[Fuc(a1-2)[GalNAc(a1-3)]Gal(b1-3)GlcNAc(b1-2)Man(a1-6)]Man(b1-4)GlcNAc(b1-4)GlcNAc
# Procedure, shortened: as §1
# [42] = target: Fuc(a1-2)[GalNAc(a1-3)]Gal(b1-3)GlcNAc(b1-2)Man(a1-3)[Fuc(a1-2)[GalNAc(a1-3)]Gal(b1-3)GlcNAc(b1-2)Man(a1-6)]Man(b1-4)GlcNAc(b1-4)[Fuc(a1-6)]GlcNAc
# Procedure, shortened: as §1
# [43] = target: Fuc(a1-2)[GalNAc(a1-3)]Gal(b1-3)GlcNAc(b1-3)GalNAc
# Procedure, shortened: as §1
binder,measurement,setting,value
B1,glycan array binding signal (z-score),[1],-0.139
same,glycan array binding signal (z-score),[2],0.078
same,glycan array binding signal (z-score),[3],0.697
same,glycan array binding signal (z-score),[4],0.106
same,glycan array binding signal (z-score),[5],2.73
same,glycan array binding signal (z-score),[6],-1.08
same,glycan array binding signal (z-score),[7],-0.553
same,glycan array binding signal (z-score),[8],-0.576
same,glycan array binding signal (z-score),[9],0.775
same,glycan array binding signal (z-score),[10],0.215
same,glycan array binding signal (z-score),[11],1.04
same,glycan array binding signal (z-score),[12],0.324
same,glycan array binding signal (z-score),[13],-0.573
same,glycan array binding signal (z-score),[14],-1.15
same,glycan array binding signal (z-score),[15],0.422
same,glycan array binding signal (z-score),[16],-0.86
same,glycan array binding signal (z-score),Fuc(a1-2)Gal6S(b1-4)Glc,2.72
same,glycan array binding signal (z-score),[17],0.784
same,glycan array binding signal (z-score),Fuc(a1-2)[Gal(a1-3)]Gal,0.488
same,glycan array binding signal (z-score),[18],-0.173
same,glycan array binding signal (z-score),[19],-0.478
same,glycan array binding signal (z-score),[20],-0.404
same,glycan array binding signal (z-score),[21],0.47
same,glycan array binding signal (z-score),[22],-1.37
same,glycan array binding signal (z-score),[23],-0.81
same,glycan array binding signal (z-score),[24],-0.295
same,glycan array binding signal (z-score),[25],-0.478
same,glycan array binding signal (z-score),[26],0.146
same,glycan array binding signal (z-score),[27],-2.18
same,glycan array binding signal (z-score),[28],2.81
same,glycan array binding signal (z-score),[29],1.31
same,glycan array binding signal (z-score),[30],-0.998
same,glycan array binding signal (z-score),[31],2.22
same,glycan array binding signal (z-score),[32],0.082
same,glycan array binding signal (z-score),[33],1.42
same,glycan array binding signal (z-score),[34],-0.372
same,glycan array binding signal (z-score),[35],-1.59
same,glycan array binding signal (z-score),[36],0.651
same,glycan array binding signal (z-score),[37],0.693
same,glycan array binding signal (z-score),[38],-0.048
same,glycan array binding signal (z-score),[39],0.138
same,glycan array binding signal (z-score),[40],1.61
same,glycan array binding signal (z-score),[41],-0.169
same,glycan array binding signal (z-score),[42],-0.612
same,glycan array binding signal (z-score),[43],0.96

# Part of the list above, with tabs.
binder	measurement	setting	value
B1	glycan array binding signal (z-score)	[14]	-1.15
same	glycan array binding signal (z-score)	[15]	0.422
